Assays:
CYP3A4 [1] = target: T1, CYP3A4 (Homo sapiens, UniProt P08684); details: cited from earlier work
CYP3A4 [2] = target: T1, CYP3A4
Procedure: In FIGS. 3-6, CYP3A4 enzyme was co-expressed with cytochrome b5 and cytochrome P450 reductase in membrane fractions (Supersomes™). […] The reactions were initiated by addition of the NADPH regenerating system and incubated for 10 minutes at 37° C. After incubation, an equal volume (50 μl) of LDR was added and luminescence read 20 minutes later at room temperature on a Veritas™ luminometer. […] IC50 is the concentration of inhibitor that causes 50% inhibition of the reaction. Curve fits and IC50 calculations were performed with the program GraphPad Prism™.

Amino acid sequences for entries named in this document (tags omitted).
UniProt P08684, whole entry: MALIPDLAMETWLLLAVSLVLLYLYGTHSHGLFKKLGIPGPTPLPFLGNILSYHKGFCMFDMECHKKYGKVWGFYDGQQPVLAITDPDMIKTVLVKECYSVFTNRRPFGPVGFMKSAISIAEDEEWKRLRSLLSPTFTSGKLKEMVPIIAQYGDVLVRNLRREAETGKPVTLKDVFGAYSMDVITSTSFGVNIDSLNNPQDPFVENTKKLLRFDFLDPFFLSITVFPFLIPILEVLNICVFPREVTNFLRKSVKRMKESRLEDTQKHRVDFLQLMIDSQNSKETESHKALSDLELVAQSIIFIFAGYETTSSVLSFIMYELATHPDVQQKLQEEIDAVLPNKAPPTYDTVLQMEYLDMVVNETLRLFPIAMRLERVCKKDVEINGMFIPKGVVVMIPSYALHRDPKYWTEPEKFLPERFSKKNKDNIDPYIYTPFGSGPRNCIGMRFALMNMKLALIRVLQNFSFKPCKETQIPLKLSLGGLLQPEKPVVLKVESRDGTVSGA

COC(=O)C1=C(C)NC(C)=C(C(=O)OC)C1c1ccccc1[N+](=O)[O-] [nifedipine]
effect on CYP3A4 assay using luciferin-BE (CYP3A4 [1]): stimulated | effect on CYP3A4 assay using luciferin-PFBE (CYP3A4 [1]): stimulated | effect on CYP3A4 assay using luciferin-PPXE (CYP3A4 [1]): inhibited | effect on the CYP3A4/3391 reaction (CYP3A4 [2]): inhibited

Reference: patent publication US8288559B2, “Luminogenic compounds and methods to detect cytochrome P450 3A enzymes” (Promega Corporation, priority 2008, dated 2012)
